Test results as given in the supplement of paper PMC12823440, “Inhibitors supercharge kinase turnover through native proteolytic circuits” (Nature, 2025).
Structures can show the parent of a compound that is named as a salt. The list shows a part of the results. The calls rarely recur for the same compound in another form.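 Kinases were expressed as nanoluciferase fusions in K562 cells and luminescence was read every 4 h between 2 and 18 h as percent of control, DMSO set to 100% and a positive control to 0%. A time point counts as decreased when the signal drops significantly (2 sigma). The hit call is the authors' own, does not follow from the count of time points alone, and its rule is not shown.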

The chains behind the UniProt entries cited, without tags or fusion partners. Where a name states a change or a piece, a line headed by the entry shows the natural chain unless it says otherwise.
UniProt P07947, whole entry, looked up: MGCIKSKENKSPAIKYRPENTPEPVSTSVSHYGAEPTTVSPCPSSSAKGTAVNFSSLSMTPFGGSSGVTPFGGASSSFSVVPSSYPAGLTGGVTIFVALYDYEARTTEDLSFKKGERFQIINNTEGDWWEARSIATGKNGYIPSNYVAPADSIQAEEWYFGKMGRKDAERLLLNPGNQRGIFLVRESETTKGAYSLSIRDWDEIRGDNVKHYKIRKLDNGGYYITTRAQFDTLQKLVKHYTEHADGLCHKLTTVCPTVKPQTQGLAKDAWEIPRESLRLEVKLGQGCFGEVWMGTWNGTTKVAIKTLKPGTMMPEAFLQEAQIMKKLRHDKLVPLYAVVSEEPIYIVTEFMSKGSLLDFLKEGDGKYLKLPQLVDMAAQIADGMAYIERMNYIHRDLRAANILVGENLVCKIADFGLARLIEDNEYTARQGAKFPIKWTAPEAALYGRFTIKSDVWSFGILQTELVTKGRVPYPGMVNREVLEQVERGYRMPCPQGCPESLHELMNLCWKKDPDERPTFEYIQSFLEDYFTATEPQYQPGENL
UniProt P43403: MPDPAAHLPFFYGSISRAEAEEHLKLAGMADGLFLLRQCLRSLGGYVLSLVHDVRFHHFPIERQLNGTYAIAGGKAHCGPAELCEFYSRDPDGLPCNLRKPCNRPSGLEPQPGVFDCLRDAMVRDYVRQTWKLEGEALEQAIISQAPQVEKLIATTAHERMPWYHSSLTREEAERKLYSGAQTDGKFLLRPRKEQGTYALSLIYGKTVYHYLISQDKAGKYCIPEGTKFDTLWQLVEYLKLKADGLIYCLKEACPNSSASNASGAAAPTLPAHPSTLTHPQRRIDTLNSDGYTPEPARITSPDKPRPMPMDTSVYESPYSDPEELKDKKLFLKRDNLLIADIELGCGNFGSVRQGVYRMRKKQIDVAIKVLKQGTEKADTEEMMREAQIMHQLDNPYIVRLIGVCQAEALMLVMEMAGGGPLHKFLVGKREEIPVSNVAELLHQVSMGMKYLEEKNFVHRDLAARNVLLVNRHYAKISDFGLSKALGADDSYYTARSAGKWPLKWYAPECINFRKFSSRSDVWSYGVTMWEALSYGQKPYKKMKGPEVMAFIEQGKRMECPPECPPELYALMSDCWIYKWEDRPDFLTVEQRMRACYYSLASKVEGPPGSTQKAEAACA
UniProt P11802: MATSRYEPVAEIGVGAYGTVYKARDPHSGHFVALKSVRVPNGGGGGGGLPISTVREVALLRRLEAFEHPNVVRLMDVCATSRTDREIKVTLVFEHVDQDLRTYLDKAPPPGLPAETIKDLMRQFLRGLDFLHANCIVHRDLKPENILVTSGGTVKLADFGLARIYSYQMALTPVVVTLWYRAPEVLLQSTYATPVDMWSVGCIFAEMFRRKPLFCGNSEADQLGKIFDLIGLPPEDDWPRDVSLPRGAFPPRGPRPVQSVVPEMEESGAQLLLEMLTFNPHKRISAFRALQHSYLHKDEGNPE
UniProt P50613: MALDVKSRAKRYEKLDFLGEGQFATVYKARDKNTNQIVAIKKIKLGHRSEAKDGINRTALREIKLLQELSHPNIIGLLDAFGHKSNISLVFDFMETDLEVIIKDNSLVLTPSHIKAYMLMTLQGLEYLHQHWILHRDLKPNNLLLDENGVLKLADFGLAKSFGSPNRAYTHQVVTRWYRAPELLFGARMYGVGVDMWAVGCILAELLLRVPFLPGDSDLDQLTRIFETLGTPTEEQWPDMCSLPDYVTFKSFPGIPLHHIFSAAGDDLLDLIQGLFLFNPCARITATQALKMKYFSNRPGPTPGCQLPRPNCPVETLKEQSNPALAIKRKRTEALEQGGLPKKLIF
UniProt P50750, whole entry: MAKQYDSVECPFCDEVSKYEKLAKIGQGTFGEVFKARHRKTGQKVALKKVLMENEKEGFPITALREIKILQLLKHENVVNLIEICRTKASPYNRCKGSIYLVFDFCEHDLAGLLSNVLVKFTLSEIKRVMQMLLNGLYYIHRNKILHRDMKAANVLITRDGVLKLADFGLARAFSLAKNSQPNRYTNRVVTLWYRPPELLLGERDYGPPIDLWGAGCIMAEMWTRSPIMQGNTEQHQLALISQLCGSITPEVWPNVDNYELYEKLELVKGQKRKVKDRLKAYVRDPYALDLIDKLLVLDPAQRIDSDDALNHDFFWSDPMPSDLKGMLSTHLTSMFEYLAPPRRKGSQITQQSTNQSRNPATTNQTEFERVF

Tests used:
Details in all cases: K562; 2-18 h
YES1 = YES1 (UniProt P07947); assay: number of time points (of 5) at which kinase-Nluc abundance scored as decreased, DMSO-normalised (count); higher = more persistent destabilization
ZAK = ZAK (UniProt Q9NYL2); assay: as above
ZAP70 = ZAP70 (UniProt P43403); assay: as above
CDK4 = CDK4 (UniProt P11802); assay: number of time points (of 4; 2 h point missing) at which kinase-Nluc abundance scored as decreased, DMSO-normalised (count); higher = more persistent destabilization
CDK7 = CDK7 (UniProt P50613); assay: as above
CDK9 = CDK9 (UniProt P50750); assay: as above

Measured: number of time points

O=C1NC(=O)/C(=C/c2ccc3c(c2)OC(F)(F)O3)S1 (10 µM)
0: all assays above

COCCO[C@@H]1[C@H](O)[C@@H](CO)O[C@H]1n1cnc2c(=O)[nH]c(N)nc21 [2′-O-(2-Methoxyethyl)guanosine] (10 µM)
0: all assays above

O=c1cc(O)cc(/C=C/c2ccc(O)c(O)c2)o1 [Hispidin] (10 µM)
0: all assays above

O=C1c2ccc(Nc3ccc(F)cc3F)cc2CCc2ccc(OC[C@H](O)CO)cc21 [Skepinone-L] (2.5 µM)
0: all assays above

COc1cc(N2CCC(N3CCN(C)CC3)CC2)ccc1Nc1ncc(Cl)c(Nc2ccccc2P(C)(C)=O)n1 [Brigatinib] (2 µM)
0: all assays above

O=C(Nc1cc(Oc2cc(F)c(NC(=O)C3(C(=O)Nc4ccc(F)cc4)CC3)cc2F)ccn1)C1CC1 [Altiratinib] (10 µM)
0: all assays above

CN1CCN(c2ccc(C(=O)Nc3cc(-c4cccc(NS(=O)(=O)c5ccccc5)c4)[nH]n3)cc2)CC1 [BPR1J-097 Hydrochloride] (2.5 µM)
0: all assays above

Cn1nccc1Nc1nccc(-c2cc3c(s2)C(C)(C)N(CCN2CCOCC2)C3=O)n1 (10 µM)
0: all assays above

O=C(O)CCc1ccc(O)c(O)c1 [Dihydrocaffeic acid] (10 µM)
0: all assays above

CNC(=O)c1ccc(-c2cnc3cnc(C(=O)N(C)c4ccc(Cl)cc4)cn23)cc1 (2.5 µM)
0: all assays above

COc1c(NC(=O)C(=O)c2ccc(OCCN3CCOCC3)c3ccccc23)cc(C(C)(C)C)cc1NS(C)(=O)=O (2.5 µM)
0: all assays above

N#CC(c1ccnc(NCCc2cccnc2)n1)c1nc2ccccc2s1 (centres undefined) (10 µM)
0: all assays above

CCc1cc(O)c(F)cc1-c1ccc2c(-c3nc4c([nH]3)CN(C3CCN(C)CC3)CC4)n[nH]c2c1 [JAK-IN-5 (hydrochloride)] (2 µM)
0: all assays above

O=C(CNC(=O)c1ccc(-c2ccccc2)cc1)NC1CCCc2ccccc21 (centres undefined) [TAO Kinase inhibitor 1] (10 µM)
0: all assays above

COc1ccc(CC(=O)Nc2nc3c(s2)CCc2ccccc2-3)cc1OC (10 µM)
0: all assays above

Fc1ccc(-c2nc(-c3c(F)cccc3F)[nH]c2-c2ccncc2)cc1 (10 µM)
0: all assays above

OC[C@H]1O[C@@H](Oc2cc3c(O)cc(O)cc3[o+]c2-c2cc(O)c(O)c(O)c2)[C@H](O)[C@@H](O)[C@@H]1O [Delphinidin 3-glucoside (chloride)] (10 µM)
0: all assays above

COCCOc1ccc(-c2cn(-c3ccccc3)c3nc[nH]c(=O)c23)cc1 (10 µM)
0: all assays above

Cc1cc(-c2cc(OC(=O)c3ccccc3)ccc2Cl)cc2nnc(Nc3ccc(OCCN4CCCC4)cc3)nc12 (0.5 µM)
0: all assays above

N#Cc1ccc2ncnc(NC3CCC(N4CCOCC4)CC3)c2c1 (centres undefined) (10 µM)
0: all assays above

CC(C)=CCC[C@](C)(O[C@@H]1O[C@H](CO)[C@@H](O)[C@H](O)[C@H]1O)[C@H]1CC[C@]2(C)[C@@H]1[C@H](O)C[C@@H]1[C@@]3(C)CC[C@H](O)C(C)(C)[C@@H]3[C@@H](O[C@@H]3O[C@H](CO)[C@@H](O)[C@H](O)[C@H]3O[C@@H]3O[C@@H](C)[C@H](O)[C@@H](O)[C@H]3O)C[C@]12C [Ginsenoside Re] (10 µM)
1: CDK9
0: all other assays above

C=CC(=O)Nc1ccc(CN(C(=O)Nc2c(Cl)c(OC)cc(OC)c2Cl)c2cc(Nc3ccc(N4CCN(C)CC4)cc3)ncn2)cc1 (10 µM)
0: all assays above

CC(=O)c1c(C)c2cnc(Nc3ccc(N4CCN(CCCCNC(=O)COc5cccc6c5C(=O)N(C5CCC(=O)NC5=O)C6=O)CC4)cn3)nc2n(C2CCCC2)c1=O (centres undefined) (10 µM)
0: all assays above

COC1(c2sc3c(N4CCOCC4)nc(-c4cnc(N)nc4)nc3c2C)COC1 (2.5 µM)
2: CDK7
0: all other assays above

2 records drawn at random from the list so far, as already listed:
N#Cc1ccc2ncnc(NC3CCC(N4CCOCC4)CC3)c2c1 (centres undefined) (10 µM)
0: all assays above

COC1(c2sc3c(N4CCOCC4)nc(-c4cnc(N)nc4)nc3c2C)COC1 (2.5 µM)
2: CDK7
0: all other assays above

Next part

O=C(Nc1ccc(F)cc1F)[C@H](NC(=S)Nc1cc(C(F)(F)F)cc(C(F)(F)F)c1)c1ccccc1 (2.5 µM)
0: all assays above

COc1cc2ncn(-c3cc(OCc4ccccc4S(C)(=O)=O)c(C#N)s3)c2cc1OC (10 µM)
0: all assays above

COc1ncc(-c2nc(N3CCOCC3)nc3c(CN4CCC(C(C)(C)O)CC4)cc(F)cc23)cc1NS(C)(=O)=O [Linperlisib] (10 µM)
0: all assays above

Cc1cc(Nc2cc(Cl)nc(Oc3ccc([N+](=O)[O-])cc3)n2)n[nH]1 [Autophinib] (2.5 µM)
0: all assays above

COCCOc1cnc(Sc2cc(C)c(-c3csc(NC(=O)c4ccncc4)n3)c(C)c2)cn1 [T-1101 (tosylate)] (2.5 µM)
1: CDK7
0: all other assays above
